## Microarray screen: hit calls

Targets (5′ to 3′):
T1: SAM-II riboswitch RNA pseudoknot, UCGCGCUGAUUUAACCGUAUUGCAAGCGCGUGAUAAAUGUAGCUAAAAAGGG. Hit rate about 1% of about 21,000 compounds.
T2: PreQ1 riboswitch RNA pseudoknot, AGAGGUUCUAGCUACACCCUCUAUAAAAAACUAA. From B. subtilis. Hit rate about 0.7% of about 24,000 compounds.
T3: TPP riboswitch RNA three-way junction, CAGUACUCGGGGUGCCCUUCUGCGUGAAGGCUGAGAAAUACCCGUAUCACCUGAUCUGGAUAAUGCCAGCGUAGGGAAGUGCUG. Hit rate about 0.7% of about 24,000 compounds.

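Compounds were printed on reactive glass slides in duplicate spots, a dye-labelled oligonucleotide was laid over them, and the fluorescence left after washing was read. For the PreQ1, TPP and SAM-II riboswitches the laboratory earlier reported (doi:10.1038/s41467-019-09493-3) 1 µM RNA, 2 h, and a rule that included a mean Z-score above 3 (spot signal-to-noise against the whole library), a score well above that on a control array, and duplicate spots agreeing (coefficient of variation under 100). The data file gives only the calls; its cut-offs may differ, and compounds hitting several targets are kept. The calls come from the array alone, and fixing a compound to the slide can hide its binding.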
A compound is marked yes if it was called a hit and no if it was screened but was not.
The compounds are a random part of those screened.
A dash means that no call is listed here.

structure	T1	T2	T3
CCc1n[nH]c(C(=O)N2CCCC(CO)(CCOC)C2)c1C (stereo not drawn)	no	no	no
CC(C)(C)NC(=O)Cn1c(-c2nonc2N)nc2ccccc21	no	no	no
Cc1nc2cc(-c3nc(C4CCCC4)nn3CCO)ccc2[nH]1	no	no	no
COc1cccc(-n2c3c(c(SC(N)c4cccc5ccccc45)nc2=O)CCC3)c1 (stereo not drawn)	-	no	no
Cc1nnc(-c2cccc(-n3ccnc3-c3cn(C4CCNCC4)nn3)c2)[nH]1	no	no	no
Nc1nc2n(c1C(=O)c1ccc(Br)cc1)CCCC2	no	no	no
CC=CCN1CCN(Cc2nncn2C(C)C)CC(O)C1 (stereo not drawn)	no	no	no
CCOC(=O)N1CCC(Nc2c(N3CCOCC3)c(=O)c2=O)CC1	-	no	no
Oc1ccc(Nc2nc(-c3ccc(Cl)cc3)cs2)cc1	no	no	no
Cc1cc(C)c2c(c1)NC(=O)C2CC(=O)N1CCc2nc(N)sc2C1 (stereo not drawn)	no	no	no
COC(=O)c1cc(NC2c3ncccc3C(=O)N2c2ccc(OC)cc2)cc(C(=O)OC)c1 (stereo not drawn)	-	no	no
COc1ccc2cccc(CCNC(C)=O)c2c1	no	no	no
CC1=C(c2ccccc2)S(=O)(=O)N=C1NCc1ccc(Cl)cc1	-	no	no
O=C(c1cc(=O)[nH]c2cc(F)ccc12)N(CCO)Cc1ccccc1Cl	no	no	no
COc1ccc(CNCc2ccc(OC)c3ccccc23)cc1	no	no	no
CCOC(=O)c1ccc(Nc2nc(C)cc(C)n2)cc1	no	no	no
COc1ccc(-c2nc3[nH]cnn3c2Nc2ccc(C)cc2)cc1	no	no	no
CC(=O)Nc1cccc(-c2cc(N3CCOCC3)nc(N)n2)c1	no	no	no
COc1nc(NCc2cccnc2)nc(N2CCSCC2)n1	no	no	no
Cc1[nH]nc2ccc(-c3cncc(OC[C@@H](N)Cc4ccccc4)c3)cc12	no	no	no
O=C(CCc1nc2ccccc2nc1O)NCc1cc2n(n1)CCCNC2	no	no	no
Nc1ncc(C(=O)NCc2ccc(F)cc2F)c(-c2ccccc2)n1	no	no	no
O=C(c1cnco1)N1CCN(c2cc(NCCO)ncn2)CC(O)C1 (stereo not drawn)	no	no	no
CCOC(=O)CNc1ccc(Cl)cc1C	no	no	no
CCn1nc(CC(C)C)cc1C(=O)N1CCC2(CC1)NCCNC2=O	no	no	no
Cc1cc(NS(=O)(=O)c2ccc(Nc3nc(-c4ccc(F)c(C)c4)cs3)cc2)no1	no	no	no
CC(C)n1cc(C(=O)NCC(O)COc2ccc(Cl)cc2)cn1 (stereo not drawn)	no	no	no
OCCc1cnc2cc(-c3nc(CCc4ccccc4)n[nH]3)nn2c1	no	no	no
N#CC1=C(N)N2C(=O)c3ccccc3SC2=C(C#N)C1c1c(F)cccc1Cl (stereo not drawn)	no	no	no
O=C1CCCCN1CCCC(=O)N1CCC2(CC1)[C@H](O)C[C@@H]2O	no	no	no
COc1cccc2c(Nc3cccc(C(C)=O)c3)cc(C)nc12	no	no	no
O=C(Nc1ccc(C2=NCCN2)cc1)c1ccc(Cl)c(C(=O)Nc2ccc(C3=NCCN3)cc2)c1	yes	no	yes
CCOC(=O)c1cnc2ccc(Cl)cc2c1NCCN(C)C	no	no	no
C=CCNc1nc(-c2ccc(OC)c(OC)c2)cs1	no	no	no
CC1(C2CCNCC2)NC(=O)NC1=O (stereo not drawn)	no	no	no
N[C@H]1CC[C@@H](n2cc(C(=O)NCc3noc(-c4ccccc4)n3)nn2)CC1	no	no	no
CC[C@@]1([C@@H]2O[C@@H]([C@H]3O[C@@](O)(CO)[C@H](C)C[C@H]3C)C[C@H]2C)CC[C@H]([C@]2(C)CC[C@]3(C[C@H](O)[C@@H](C)[C@@H]([C@@H](C)[C@@H](OC)[C@H](C)C(=O)[O-])O3)O2)O1	no	no	no
O=C(CCc1cc2n(n1)CCCNC2)NC(CCn1cncn1)c1ccccc1 (stereo not drawn)	no	no	no
OCCn1nc(C2(c3ccccc3)CC2)nc1-c1cc(-c2ccccn2)n[nH]1	no	no	no
Cc1ccc(S(=O)(=O)Nc2ccccc2CNc2cccc(Br)c2)cc1	no	no	no
Cc1cccn2c(F)c(C(=O)N3CCn4nc(C(=O)NCCO)cc4C3)nc12	no	no	no
CCCn1ccnc1-c1nccn1-c1ccccc1CCO	no	no	no
CC(C)CCNc1c(-c2ccc(Br)cc2)[nH]c2c(C#N)cnn12	-	no	no
N[C@@H]1CC[C@@H]1NS(=O)(=O)c1ccc(-n2cccn2)cc1	no	no	no
O=C(CCCc1c[nH]c2ccccc12)N1CCOCC(CO)C1 (stereo not drawn)	no	no	no
CSc1nc(-c2ccc(Cl)cc2)nc2c1Cc1c(CO)cnc(C)c1O2	-	no	no
Cc1cc(C)nc(NS(=O)(=O)c2ccc(N)cc2)n1	no	no	no
FC(F)(F)c1ccc(Nc2nc(-c3ccncc3)cs2)cc1	no	no	no

From ROBIN, a set of small-molecule microarray screens (doi:10.1002/anie.202211358).